This assay has as its system BDF1 mice, B16 melanoma ip, median survival T/C. Description: NCI In Vivo Anticancer Drug Screen. Data for tumor model B16 Melanoma (intraperitoneal) in B6D2F1 (BDF1) mice. The note with it: T/C endpoint: median survival time, higher T/C = longer survival. The procedure, abridged:
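Tumor-bearing mice received test compound or vehicle. Survival or tumor size was then measured in both groups. The treated-group figure was divided by the control-group figure.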

Setting [1] is: dose: 100.0 mg/kg/injection, schedule: Q01DX009 (ip), vehicle: saline with Tween-80.
[2] abbreviates: dose: 200.0 mg/kg/injection, schedule: Q01DX009 (ip), vehicle: saline with Tween-80.
Where [3] appears, read: dose: 400.0 mg/kg/injection, schedule: Q01DX009 (ip), vehicle: saline with Tween-80.
Setting [4] is: dose: 400.0 mg/kg/injection, schedule: Q01DX009 (ip), vehicle: Klucel (hydroxypropylcellulose) (HPC).
[5] abbreviates: dose: 50.0 mg/kg/injection, schedule: Q01DX009 (ip), vehicle: water.
[6] abbreviates: dose: 150.0 mg/kg/injection, schedule: Q01DX009 (ip), vehicle: water.
[7] abbreviates: dose: 200.0 mg/kg/injection, schedule: Q01DX009 (ip), vehicle: Klucel (hydroxypropylcellulose) (HPC).

The values that follow come from PubChem BioAssay AID192 (DTP/NCI, 2004).

The list shows only some results of the screen, not a fair sample: it gathers tests that were run many times, whatever their T/C, doses with no T/C, and many T/C values between a quarter and a half above the control. Other doses and runs of a compound stand elsewhere. T/C is the treated group as % of the vehicle group. Some doses have a count of surviving animals in place of a T/C: the source files T/C as zero there, which appears to mark a toxic dose or a test without result, not a measured value. Some survivor counts are full or nearly so, which does not show that the dose was tolerated: survival well below the control is almost never listed, so the zero probably covers shortened survival too. Survivors were counted at the toxicity check, usually on the fifth day, unless a day is given; later deaths do not show. Schedule codes are those of the source, read here as Q, the interval in days (D) or hours (H), X, the number of doses. Some structures stand for samples that the source files as different forms (salt, stereo form or complex); doses refer to the form tested. Some entries hold several experiments; their values stand side by side, smallest first. For survival time, this PubChem deposit counts one and a half times the control or more as active, and values a quarter to a half above the control carry no call in these data; other NCI protocols may use other cut-offs. Some T/C values are followed by the survivors on the day toxicity was checked, most often the fifth; without a count, all were alive then. Marks such as (2×) say how often a value occurs here.

On to `CC(C)CC(NC(=O)OC(C)(C)C)C(=O)ON1C(=O)CCC1=O` (configuration not stated), for which the survivor count runs as follows: under setting [1], 9 of 10; under setting [2], 1 of 10; under setting [3], 0 of 10.
`O=C(NCCCl)NCCCl`: the survivor count is given as 9 of 10 under setting [1] and 5 of 10 (dose: 800.0 mg/kg/injection, schedule: Q01DX009 (ip), vehicle: saline with Tween-80).
`Cc1c(C)c2c(c(C)c1O)CCC(C)(CCCC(C)CCCC(C)CCCC(C)C)O2` (configuration not stated): under setting [3], the survivor count is 6 of 6.
For `COC(=O)Nc1ccc(Cc2ccc(NC(=O)OC)cc2)cc1`, the T/C by setting is: under setting [1], 130 % of control; under setting [2], 146 % of control.
For the compound `Nc1ncnc2c1ncn2C1OC(COP(=O)(O)O)C(O)C1O` (configuration not stated), the T/C is 131 % of control (dose: 25.0 mg/kg/injection, schedule: Q01DX009 (ip), vehicle: saline); 125 % of control [9 of 10 alive] (dose: 200.0 mg/kg/injection, schedule: Q01DX009 (ip), vehicle: saline); 130 % of control (dose: 400.0 mg/kg/injection, schedule: Q01DX009 (ip), vehicle: saline).
For the compound `CC12CC(C(=O)O)C3(O)CC(C)(C1)CC(C)(C2)C3` (configuration not stated) (tested in a mixture with another compound), the survivor count under setting [4] is 0 of 10 and 6 of 10.
Consider `C[n+]1c2ccccc2c(Nc2ccc(NS(=O)(=O)CCCCN=C(N)N)cc2)c2ccc(N)cc21`, for which the T/C is, setting by setting: (dose: 0.75 mg/kg/injection, schedule: Q01DX009 (ip), vehicle: Klucel (hydroxypropylcellulose) (HPC)) 127 % of control; (dose: 1.5 mg/kg/injection, schedule: Q01DX009 (ip), vehicle: Klucel (hydroxypropylcellulose) (HPC)) 142 % of control; (dose: 1.5 mg/kg/injection, schedule: Q01DX009 (ip), vehicle: water) 132 and 138 % of control; (dose: 3.0 mg/kg/injection, schedule: Q01DX009 (ip), vehicle: water) 148 % of control; (dose: 3.12 mg/kg/injection, schedule: Q04DX003 (ip), vehicle: water) 131 % of control; (dose: 6.25 mg/kg/injection, schedule: Q04DX003 (ip), vehicle: water) 144 % of control. Besides, the survivor count runs as follows: (dose: 12.0 mg/kg/injection, schedule: Q01DX009 (ip), vehicle: Klucel (hydroxypropylcellulose) (HPC)) 10 of 10; (dose: 24.0 mg/kg/injection, schedule: Q01DX009 (ip), vehicle: Klucel (hydroxypropylcellulose) (HPC)) 10 of 10; (dose: 24.0 mg/kg/injection, schedule: Q01DX009 (ip), vehicle: water) 9 of 10; (dose: 50.0 mg/kg/injection, schedule: Q04DX003 (ip), vehicle: water) 5 of 10.
Regarding `C=C(C)C12OC3(c4ccccc4)OC1C1C4OC4(CO)C(O)C4(O)C(=O)C(C)=CC4C1(O3)C(C)C2OC(=O)/C=C/C=C/c1ccccc1` (configuration not stated), the survivor count (dose: 200.0 micrograms/kg/injection, schedule: Q01DX009 (ip), vehicle: alcohol) was 9 of 10 and the survivor count (dose: 400.0 micrograms/kg/injection, schedule: Q01DX009 (ip), vehicle: alcohol) is reported as 4 of 10.
With `CCN1/C(=C/C(C)=C/c2sc3ccccc3[n+]2CC)Sc2ccccc21`, the survivor count (dose: 0.2 mg/kg/injection, schedule: Q01DX009 (ip), vehicle: saline with Tween-80) is on record as 4 of 6 and the survivor count (dose: 0.4 mg/kg/injection, schedule: Q01DX009 (ip), vehicle: saline with Tween-80) is 5 of 6.
Turning to `COc1ccc(-c2csc(=[N+]3CCCCC3)s2)cc1`, the survivor count under setting [5] is 0 of 10 and 1 of 10.
Regarding `CCN(CC)CCCC(C)Nc1cc(C)nc(Nc2nc3cc(Cl)c(Cl)cc3[nH]2)n1` (configuration not stated), the survivor count (dose: 20.0 mg/kg/injection, schedule: Q01DX009 (ip), vehicle: Klucel (hydroxypropylcellulose) (HPC)) is given as 10 of 10.
For `O=C(O)c1c2c(nc3ccccc13)Cc1ccccc1-2`, the T/C reads like this: (dose: 25.0 mg/kg/injection, schedule: Q01DX009 (ip), vehicle: Klucel (hydroxypropylcellulose) (HPC)) 103, 125, 134, 180 % of control; (dose: 44.0 mg/kg/injection, schedule: Q01DX009 (ip), vehicle: water) 139 % of control; (dose: 50.0 mg/kg/injection, schedule: Q01DX009 (ip), vehicle: Klucel (hydroxypropylcellulose) (HPC)) 130, 135, 136, 209 % of control; under setting [5], 135 and 141 % of control; (dose: 59.0 mg/kg/injection, schedule: Q01DX009 (ip), vehicle: Klucel (hydroxypropylcellulose) (HPC)) 135 % of control; (dose: 67.0 mg/kg/injection, schedule: Q01DX009 (ip), vehicle: water) 132 % of control. In addition, the T/C (dose: 89.0 mg/kg/injection, schedule: Q01DX009 (ip), vehicle: Klucel (hydroxypropylcellulose) (HPC)) is 141 % of control; the T/C (dose: 89.0 mg/kg/injection, schedule: Q04DX003 (ip), vehicle: Klucel (hydroxypropylcellulose) (HPC)) was 134 % of control; the T/C (dose: 100.0 mg/kg/injection, schedule: Q01DX009 (ip), vehicle: Klucel (hydroxypropylcellulose) (HPC)) is 151, 169 [9 of 10 alive], 187, 231 % of control; the T/C (dose: 100.0 mg/kg/injection, schedule: Q01DX009 (ip), vehicle: water) is 140 (2×), 157, 169 % of control; the T/C (dose: 100.0 mg/kg/injection, schedule: Q04DX003 (ip), vehicle: water) is 130 % of control; the T/C (dose: 133.0 mg/kg/injection, schedule: Q01DX001 (ip), vehicle: Klucel (hydroxypropylcellulose) (HPC)) is 129 % of control. Also, the T/C under setting [6] was 135 % of control; the T/C under setting [7] is 143 and 150 % of control [9 of 10 alive]; the T/C (dose: 200.0 mg/kg/injection, schedule: Q04DX003 (ip), vehicle: Klucel (hydroxypropylcellulose) (HPC)) was 130 % of control; the T/C (dose: 300.0 mg/kg/injection, schedule: Q01DX001 (ip), vehicle: Klucel (hydroxypropylcellulose) (HPC)) is 125 % of control; the T/C (dose: 300.0 mg/kg/injection, schedule: Q04DX003 (ip), vehicle: Klucel (hydroxypropylcellulose) (HPC)) is 130 % of control. Moreover, the survivor count was 10 of 10 under setting [6]; 3 of 10 (dose: 150.0 mg/kg/injection, schedule: Q03HX016 (ip), vehicle: water); 4 of 10 (dose: 150.0 mg/kg/injection, schedule: Q03HX024 (ip), vehicle: water); 7 of 10, 8 of 10, 9 of 10 under setting [7]; 8 of 10 (dose: 200.0 mg/kg/injection, schedule: Q01DX009 (ip), vehicle: water); 2 of 10 and 10 of 10 (dose: 225.0 mg/kg/injection, schedule: Q01DX009 (ip), vehicle: water). The survivor count by setting is: (dose: 300.0 mg/kg/injection, schedule: Q01DX009 (ip), vehicle: Klucel (hydroxypropylcellulose) (HPC)) 2 of 10, 3 of 10, 10 of 10; (dose: 337.0 mg/kg/injection, schedule: Q01DX001 (ip), vehicle: water) 6 of 10; (dose: 337.0 mg/kg/injection, schedule: Q08DX002 (ip), vehicle: water) 5 of 10; under setting [4], 5 of 10; (dose: 400.0 mg/kg/injection, schedule: Q01DX009 (ip), vehicle: water) 0 of 10; (dose: 450.0 mg/kg/injection, schedule: Q04DX003 (ip), vehicle: Klucel (hydroxypropylcellulose) (HPC)) 6 of 10. Further, the survivor count is recorded as 0 of 10 (dose: 506.0 mg/kg/injection, schedule: Q01DX001 (ip), vehicle: water); 0 of 10 (dose: 506.0 mg/kg/injection, schedule: Q04DX003 (ip), vehicle: water); 0 of 10 (dose: 675.0 mg/kg/injection, schedule: Q01DX001 (ip), vehicle: water).
`CC1(C)N=C(N)N=C(N)N1c1ccc(OCCCCNC(=O)c2ccc(S(=O)(=O)F)cc2)c(Cl)c1`: the survivor count under setting [2] is reported as 1 of 10.
In the case of `COc1ccc(N=NNc2ccc(OC)cc2)cc1`, the T/C (dose: 25.0 mg/kg/injection, schedule: Q04DX003 (ip), vehicle: saline with Tween-80) was 128 % of control.
